Measurements taken from the supplement of paper PMC10849652.
The list shows a part of the results.

The chains behind the UniProt entries cited, without tags or fusion partners. Where a name states a change or a piece, a line headed by the entry shows the natural chain unless it says otherwise.
UniProt Q92508: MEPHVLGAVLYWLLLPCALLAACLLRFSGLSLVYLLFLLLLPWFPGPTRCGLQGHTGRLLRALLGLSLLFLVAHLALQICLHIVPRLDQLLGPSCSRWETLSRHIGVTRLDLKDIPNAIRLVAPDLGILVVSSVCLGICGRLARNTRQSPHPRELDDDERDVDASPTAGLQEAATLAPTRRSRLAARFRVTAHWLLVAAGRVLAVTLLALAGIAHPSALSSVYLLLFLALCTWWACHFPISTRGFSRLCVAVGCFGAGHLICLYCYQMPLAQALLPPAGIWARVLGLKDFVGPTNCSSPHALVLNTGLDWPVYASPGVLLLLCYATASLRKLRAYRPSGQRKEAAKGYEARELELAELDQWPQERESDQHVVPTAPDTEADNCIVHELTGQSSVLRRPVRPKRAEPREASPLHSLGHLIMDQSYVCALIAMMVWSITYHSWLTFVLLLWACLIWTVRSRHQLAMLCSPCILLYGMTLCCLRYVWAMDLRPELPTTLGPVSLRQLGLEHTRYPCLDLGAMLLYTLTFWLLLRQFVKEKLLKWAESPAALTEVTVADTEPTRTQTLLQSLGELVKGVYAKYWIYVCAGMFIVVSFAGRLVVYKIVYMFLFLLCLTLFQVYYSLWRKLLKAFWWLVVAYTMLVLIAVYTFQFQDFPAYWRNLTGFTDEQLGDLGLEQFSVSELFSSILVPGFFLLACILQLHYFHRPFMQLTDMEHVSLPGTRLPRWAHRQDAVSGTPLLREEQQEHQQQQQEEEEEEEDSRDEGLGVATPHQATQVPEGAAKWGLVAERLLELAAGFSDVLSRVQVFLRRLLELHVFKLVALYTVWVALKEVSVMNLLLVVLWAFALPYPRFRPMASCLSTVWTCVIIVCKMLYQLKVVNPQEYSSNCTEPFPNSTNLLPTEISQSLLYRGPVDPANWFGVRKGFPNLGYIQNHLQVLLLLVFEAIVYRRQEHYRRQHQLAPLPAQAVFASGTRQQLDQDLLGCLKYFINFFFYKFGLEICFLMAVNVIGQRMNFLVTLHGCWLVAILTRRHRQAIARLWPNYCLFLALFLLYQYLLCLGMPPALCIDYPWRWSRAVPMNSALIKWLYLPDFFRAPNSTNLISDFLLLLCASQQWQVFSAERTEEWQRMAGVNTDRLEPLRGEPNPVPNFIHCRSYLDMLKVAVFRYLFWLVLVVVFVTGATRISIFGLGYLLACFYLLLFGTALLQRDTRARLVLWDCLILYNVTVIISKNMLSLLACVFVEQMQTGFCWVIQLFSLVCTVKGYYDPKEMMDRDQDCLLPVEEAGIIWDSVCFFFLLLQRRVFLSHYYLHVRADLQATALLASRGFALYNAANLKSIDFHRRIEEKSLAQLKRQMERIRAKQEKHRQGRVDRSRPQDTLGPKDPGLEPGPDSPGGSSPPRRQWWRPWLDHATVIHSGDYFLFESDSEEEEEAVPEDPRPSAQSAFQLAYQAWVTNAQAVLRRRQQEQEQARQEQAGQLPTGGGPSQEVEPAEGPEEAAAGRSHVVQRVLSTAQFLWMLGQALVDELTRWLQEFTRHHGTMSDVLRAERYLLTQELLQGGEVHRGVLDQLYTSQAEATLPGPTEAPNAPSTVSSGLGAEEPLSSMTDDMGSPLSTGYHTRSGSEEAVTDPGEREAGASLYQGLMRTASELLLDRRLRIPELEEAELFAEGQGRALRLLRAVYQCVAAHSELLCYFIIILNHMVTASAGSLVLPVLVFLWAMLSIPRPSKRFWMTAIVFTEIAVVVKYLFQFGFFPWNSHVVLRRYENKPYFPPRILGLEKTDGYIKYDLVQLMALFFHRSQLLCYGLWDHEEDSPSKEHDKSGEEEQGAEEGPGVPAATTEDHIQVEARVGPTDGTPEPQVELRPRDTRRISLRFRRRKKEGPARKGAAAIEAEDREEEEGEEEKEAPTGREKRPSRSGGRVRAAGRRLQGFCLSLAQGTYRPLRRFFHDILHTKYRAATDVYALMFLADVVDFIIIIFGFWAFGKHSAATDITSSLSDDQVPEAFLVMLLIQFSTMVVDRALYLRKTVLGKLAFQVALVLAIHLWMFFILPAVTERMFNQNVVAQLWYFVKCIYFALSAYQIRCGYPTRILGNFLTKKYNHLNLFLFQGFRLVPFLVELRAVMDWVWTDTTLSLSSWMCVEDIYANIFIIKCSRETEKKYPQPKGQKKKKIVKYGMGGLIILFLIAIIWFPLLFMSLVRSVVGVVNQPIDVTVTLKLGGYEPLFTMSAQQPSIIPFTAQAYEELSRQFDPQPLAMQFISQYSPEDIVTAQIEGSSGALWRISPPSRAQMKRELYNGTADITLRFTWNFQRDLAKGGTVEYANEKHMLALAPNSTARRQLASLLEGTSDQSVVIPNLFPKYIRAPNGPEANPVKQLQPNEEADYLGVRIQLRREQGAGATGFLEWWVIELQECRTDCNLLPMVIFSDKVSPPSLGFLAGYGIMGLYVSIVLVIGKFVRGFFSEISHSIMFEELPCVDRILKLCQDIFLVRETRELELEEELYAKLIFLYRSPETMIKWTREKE
UniProt Q92576, whole entry, looked up: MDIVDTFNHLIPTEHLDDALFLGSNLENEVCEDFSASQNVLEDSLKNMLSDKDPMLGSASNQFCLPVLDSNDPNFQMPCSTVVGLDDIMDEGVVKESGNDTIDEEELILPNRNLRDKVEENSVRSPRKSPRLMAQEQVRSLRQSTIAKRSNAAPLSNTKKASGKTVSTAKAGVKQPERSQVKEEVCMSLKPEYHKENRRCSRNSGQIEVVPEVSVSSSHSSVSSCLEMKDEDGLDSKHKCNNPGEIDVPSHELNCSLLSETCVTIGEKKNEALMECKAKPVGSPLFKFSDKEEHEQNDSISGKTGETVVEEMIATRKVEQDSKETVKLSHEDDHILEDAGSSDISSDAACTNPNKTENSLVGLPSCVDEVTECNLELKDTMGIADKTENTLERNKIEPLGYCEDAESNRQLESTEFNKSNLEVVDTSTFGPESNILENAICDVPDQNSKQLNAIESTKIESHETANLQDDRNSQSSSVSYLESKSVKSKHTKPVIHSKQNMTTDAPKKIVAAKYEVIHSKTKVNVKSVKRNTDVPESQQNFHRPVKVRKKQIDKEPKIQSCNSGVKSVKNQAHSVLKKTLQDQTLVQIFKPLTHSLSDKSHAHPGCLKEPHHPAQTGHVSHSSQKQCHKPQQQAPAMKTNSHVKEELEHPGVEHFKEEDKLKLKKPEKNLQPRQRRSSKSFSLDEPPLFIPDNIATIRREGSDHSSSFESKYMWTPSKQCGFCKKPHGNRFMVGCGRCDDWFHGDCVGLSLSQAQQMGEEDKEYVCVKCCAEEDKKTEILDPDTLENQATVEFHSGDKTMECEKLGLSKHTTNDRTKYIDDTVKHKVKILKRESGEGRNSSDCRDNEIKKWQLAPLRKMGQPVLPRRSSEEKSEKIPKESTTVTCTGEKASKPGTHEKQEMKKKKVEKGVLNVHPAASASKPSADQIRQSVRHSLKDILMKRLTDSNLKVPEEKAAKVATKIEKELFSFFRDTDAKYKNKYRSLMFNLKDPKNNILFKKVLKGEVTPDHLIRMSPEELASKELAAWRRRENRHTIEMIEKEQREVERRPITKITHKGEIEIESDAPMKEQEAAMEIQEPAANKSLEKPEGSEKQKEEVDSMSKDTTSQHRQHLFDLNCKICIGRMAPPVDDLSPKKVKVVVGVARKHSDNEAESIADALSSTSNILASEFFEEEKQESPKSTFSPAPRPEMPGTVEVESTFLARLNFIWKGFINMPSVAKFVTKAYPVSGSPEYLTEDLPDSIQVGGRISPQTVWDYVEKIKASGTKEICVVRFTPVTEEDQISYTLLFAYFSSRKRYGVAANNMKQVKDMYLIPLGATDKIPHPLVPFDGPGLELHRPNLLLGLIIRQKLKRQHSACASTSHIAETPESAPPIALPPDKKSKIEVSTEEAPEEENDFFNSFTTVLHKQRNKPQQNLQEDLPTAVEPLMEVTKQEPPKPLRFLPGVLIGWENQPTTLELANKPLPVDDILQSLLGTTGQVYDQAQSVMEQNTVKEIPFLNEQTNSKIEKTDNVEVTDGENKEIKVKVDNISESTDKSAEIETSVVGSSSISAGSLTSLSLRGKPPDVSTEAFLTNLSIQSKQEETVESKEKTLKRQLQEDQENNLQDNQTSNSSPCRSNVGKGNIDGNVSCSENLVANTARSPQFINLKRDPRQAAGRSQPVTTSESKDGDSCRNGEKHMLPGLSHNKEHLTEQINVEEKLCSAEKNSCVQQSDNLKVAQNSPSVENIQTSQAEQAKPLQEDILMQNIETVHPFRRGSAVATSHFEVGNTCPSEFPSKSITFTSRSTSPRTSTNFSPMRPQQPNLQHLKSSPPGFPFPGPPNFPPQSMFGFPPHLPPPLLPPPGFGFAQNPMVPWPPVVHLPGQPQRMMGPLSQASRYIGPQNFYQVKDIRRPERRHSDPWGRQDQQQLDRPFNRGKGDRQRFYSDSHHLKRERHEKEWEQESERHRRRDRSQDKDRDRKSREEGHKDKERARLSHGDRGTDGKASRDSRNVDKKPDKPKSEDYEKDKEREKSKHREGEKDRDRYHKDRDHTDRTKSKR
UniProt O00264: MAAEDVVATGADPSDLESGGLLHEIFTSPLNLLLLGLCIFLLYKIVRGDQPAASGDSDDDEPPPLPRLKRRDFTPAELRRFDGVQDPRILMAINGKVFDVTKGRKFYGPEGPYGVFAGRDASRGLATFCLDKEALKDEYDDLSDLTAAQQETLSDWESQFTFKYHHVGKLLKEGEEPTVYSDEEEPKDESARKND
UniProt P15735: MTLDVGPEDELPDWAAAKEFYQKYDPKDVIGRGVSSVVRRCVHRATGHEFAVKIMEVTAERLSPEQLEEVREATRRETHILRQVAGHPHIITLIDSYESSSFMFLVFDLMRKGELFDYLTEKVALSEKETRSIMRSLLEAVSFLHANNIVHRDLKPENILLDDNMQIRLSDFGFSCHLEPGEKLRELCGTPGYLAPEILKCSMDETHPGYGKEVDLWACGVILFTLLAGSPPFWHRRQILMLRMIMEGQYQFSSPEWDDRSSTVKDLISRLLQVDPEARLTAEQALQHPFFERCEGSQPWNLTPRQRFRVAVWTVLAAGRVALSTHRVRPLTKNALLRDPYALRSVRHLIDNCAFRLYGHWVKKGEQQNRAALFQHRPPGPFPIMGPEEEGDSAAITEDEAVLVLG
UniProt Q9Y2B2: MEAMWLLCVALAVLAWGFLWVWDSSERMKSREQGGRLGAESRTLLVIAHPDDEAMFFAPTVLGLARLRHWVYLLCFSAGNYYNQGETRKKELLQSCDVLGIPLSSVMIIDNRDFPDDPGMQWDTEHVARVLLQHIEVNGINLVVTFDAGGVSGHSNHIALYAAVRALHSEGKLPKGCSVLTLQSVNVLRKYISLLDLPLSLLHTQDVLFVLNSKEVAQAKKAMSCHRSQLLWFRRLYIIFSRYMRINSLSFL
UniProt Q9H490: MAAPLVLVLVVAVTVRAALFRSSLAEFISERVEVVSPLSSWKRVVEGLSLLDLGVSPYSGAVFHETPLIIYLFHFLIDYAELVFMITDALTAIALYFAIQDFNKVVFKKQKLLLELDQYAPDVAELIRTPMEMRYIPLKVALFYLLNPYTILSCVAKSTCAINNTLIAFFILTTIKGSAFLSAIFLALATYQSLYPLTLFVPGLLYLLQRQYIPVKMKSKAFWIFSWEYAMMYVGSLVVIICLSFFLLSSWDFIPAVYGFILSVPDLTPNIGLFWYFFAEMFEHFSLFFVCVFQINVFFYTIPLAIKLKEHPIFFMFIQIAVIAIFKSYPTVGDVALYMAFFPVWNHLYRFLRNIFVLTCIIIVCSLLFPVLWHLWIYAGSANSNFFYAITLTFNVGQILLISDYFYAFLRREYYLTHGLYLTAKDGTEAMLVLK
UniProt Q8N2W9: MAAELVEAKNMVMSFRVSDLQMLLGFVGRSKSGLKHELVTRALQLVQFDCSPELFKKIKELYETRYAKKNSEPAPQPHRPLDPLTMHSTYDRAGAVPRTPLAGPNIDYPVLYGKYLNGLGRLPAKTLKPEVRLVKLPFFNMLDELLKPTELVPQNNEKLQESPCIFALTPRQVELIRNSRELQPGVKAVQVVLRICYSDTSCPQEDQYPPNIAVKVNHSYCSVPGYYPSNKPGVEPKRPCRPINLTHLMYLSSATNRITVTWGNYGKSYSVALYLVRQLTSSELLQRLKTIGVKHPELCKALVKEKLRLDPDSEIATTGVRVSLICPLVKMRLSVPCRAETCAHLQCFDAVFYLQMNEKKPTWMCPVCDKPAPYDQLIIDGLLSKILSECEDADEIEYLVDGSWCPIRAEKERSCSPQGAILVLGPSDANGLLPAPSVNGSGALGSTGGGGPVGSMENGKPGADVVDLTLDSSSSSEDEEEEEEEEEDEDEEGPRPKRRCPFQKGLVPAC
UniProt Q9BZM1: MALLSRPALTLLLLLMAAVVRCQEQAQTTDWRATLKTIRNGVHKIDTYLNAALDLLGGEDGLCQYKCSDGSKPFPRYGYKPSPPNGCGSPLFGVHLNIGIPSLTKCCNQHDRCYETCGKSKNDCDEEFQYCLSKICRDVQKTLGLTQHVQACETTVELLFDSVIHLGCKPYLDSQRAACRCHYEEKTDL

What was measured:
Assay in all cases: log2 fold change, soluble protein after heating vs DMSO (PISA); higher = thermal stabilisation; K562 lysate, 10 uM; active = over 0.2 and 3.5 SD of the protein, either way, in both replicates (recomputed)
erlotinib = compound: C#Cc1cccc(Nc2ncnc3cc(OCCOC)c(OCCOC)cc23)c1 [erlotinib]
Procedure, shortened: (§1)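 Dounce homogenisation of K562 pellets in PBS pH 7.4 with 1 mM MgCl2 produced a crude extract, used at 1 mg/mL protein. Exposure to 10 μM compound lasted 30 min, and aliquots were then heated for 3 min across 48°C-58°C, pooled and brought to 0.5% NP-40 at 4°C. The supernatant after 21,000xg for 90 min was quantified by TMTpro 16plex LC-MS/MS with channel sums equalised. Duplicate values are given as log-two fold change in thermal stability relative to solvent controls.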

[1] = compound: C/C(=N\NC(=O)C1=CC(=CC=C1)S(=O)(=O)N2CCOCC2)/C3=C(C=CC(=C3)Cl)O
Procedure, shortened: as §1

[2] = compound: C1=CC(=CC=C1C2=NC3=C(N2)C=C(C=C3)C(=O)N)OC4=CC=C(C=C4)Cl
Procedure, shortened: as §1

[3] = compound: C1=CC2=C(C=CC(=C2)/C=C\3/C(=O)NC(=NCC4=CC=CS4)S3)N=C1
Procedure, shortened: as §1

[4] = compound: C1=CC2=NC=CN=C2C=C1/C=C/3\C(=O)NC(=O)S3
Procedure, shortened: as §1

[5] = compound: C1=CC=C(C=C1)C2=NC(=C(N2)C3=CC=NC=C3)C4=CC(=C(C=C4)Cl)O
Procedure, shortened: as §1

[6] = compound: C1=CC=C2C(=C1)C3=NNC4=CC=CC(=C43)C2=O
Procedure, shortened: as §1

[7] = compound: C1CCN(C1)C(=O)NC2=CC=CC(=C2)NC3=NC=C(C(=N3)NCCC4=CN=CN4)Br
Procedure, shortened: as §1

[8] = compound: C1CN(CCC1(CC2=CC=C(C=C2)Cl)N)C3=NC=NC4=C3C=CN4
Procedure, shortened: as §1

IRAK-1-4 Inhibitor I = compound: C1COCCN1CCN2C3=CC=CC=C3N=C2NC(=O)C4=CC(=CC=C4)[N+](=O)[O-] [IRAK-1-4 Inhibitor I]
Procedure, shortened: as §1

Measured: log2 fold change

PGK1 (UniProt P00558)
inactive: erlotinib -0.007 | [1] 0.026 | [2] -0.011 | [3] -0.026 | [4] -0.04 | [5] -0.003 | [6] 0.008 | [7] 0.002 | [8] 0.011 | IRAK-1-4 Inhibitor I -0.002

PITHD1 (UniProt Q9GZP4)
inactive: erlotinib 0.005 | [1] 0.005 | [2] 0.006 | [3] -0.004 | [4] 0.003 | [5] -0.005 | [6] -0.08 | [7] 0.012 | [8] -0.002 | IRAK-1-4 Inhibitor I 0.031

PIEZO1 (UniProt Q92508)
inactive: erlotinib -0.055 | [1] 0.053 | [2] -0.001 | [3] 0.016 | [4] 0.002 | [5] 0.001 | [6] -0.029 | [7] -0.026 | [8] 0.047 | IRAK-1-4 Inhibitor I 0.016

PHF3 (UniProt Q92576)
inactive: erlotinib -0.016 | [1] -0.067 | [2] -0.001 | [3] 0.024 | [4] -0.058 | [5] -0.037 | [6] 0.013 | [7] 0.003 | [8] 0.032 | IRAK-1-4 Inhibitor I 0.031

PICALM (UniProt Q13492)
inactive: erlotinib -0.019 | [1] -0.035 | [2] 0.02 | [3] -0.021 | [4] 0.01 | [5] -0.06 | [6] -0.014 | [7] -0.016 | [8] 0.001 | IRAK-1-4 Inhibitor I 0.026

Random excerpt: 2 entries already listed.
PHF3 (UniProt Q92576)
inactive: erlotinib -0.016 | [1] -0.067 | [2] -0.001 | [3] 0.024 | [4] -0.058 | [5] -0.037 | [6] 0.013 | [7] 0.003 | [8] 0.032 | IRAK-1-4 Inhibitor I 0.031

PITHD1 (UniProt Q9GZP4)
inactive: erlotinib 0.005 | [1] 0.005 | [2] 0.006 | [3] -0.004 | [4] 0.003 | [5] -0.005 | [6] -0.08 | [7] 0.012 | [8] -0.002 | IRAK-1-4 Inhibitor I 0.031

Further entries follow:

PGM3 isoform 4 (UniProt O95394)
inactive: erlotinib -0.001 | [1] 0.036 | [2] -0.017 | [3] 0.005 | [4] 0.004 | [5] -0.035 | [6] 0.01 | [7] -0.007 | [8] -0.007 | IRAK-1-4 Inhibitor I 0.007

PLD1 (UniProt Q13393)
inactive: erlotinib -0.014 | [1] -0.001 | [2] -0.058 | [3] 0.01 | [4] -0.003 | [5] -0.016 | [6] 0.092 | [7] -0.004 | [8] 0.008 | IRAK-1-4 Inhibitor I 0.012

PGRMC1 (UniProt O00264)
inactive: erlotinib -0.032 | [1] -0.378 | [2] 0.025 | [3] -0.029 | [4] 0.003 | [5] 0.018 | [6] -0.004 | [7] 0.008 | [8] 0.013 | IRAK-1-4 Inhibitor I -0.005

PKP3 isoform 2 (UniProt Q9Y446)
inactive: erlotinib 0.063 | [1] -0.011 | [2] 0.042 | [3] 0.009 | [4] 0.006 | [5] -0.011 | [6] -0.02 | [7] -0.011 | [8] -0.013 | IRAK-1-4 Inhibitor I 0.015

PHKG2 (UniProt P15735)
inactive: erlotinib -0.106 | [1] 0.062 | [2] 0.04 | [3] 0.075 | [4] 0.104 | [5] 0.022 | [6] 0.231 | [7] 0.045 | [8] -0.011 | IRAK-1-4 Inhibitor I 0.036

PIMREG (UniProt Q9BSJ6)
inactive: erlotinib -0.362 | [2] -0.066 | [4] 0.145 | [5] -0.032 | IRAK-1-4 Inhibitor I 0.004

PHKG1 isoform 2 (UniProt Q16816)
inactive: erlotinib 0.003 | [1] -0.127 | [2] 0.187 | [3] 0.061 | [5] 0.029 | [6] 0.399 | [7] 0.157 | [8] 0.014 | IRAK-1-4 Inhibitor I -0.102

PIGL (UniProt Q9Y2B2)
inactive: erlotinib -0.117 | [2] 0.221 | [4] -0.003 | [5] 0.001 | [7] -0.119 | [8] 0.145 | IRAK-1-4 Inhibitor I 0.098

PIGU (UniProt Q9H490)
inactive: erlotinib 0.023 | [1] 0.105 | [2] -0.11 | [3] 0.064 | [4] -0.027 | [5] -0.058 | [6] -0.068 | IRAK-1-4 Inhibitor I 0.059

PHF8 (UniProt Q9UPP1)
inactive: erlotinib 0.07 | [1] -0.13 | [2] -0.109 | [3] -0.089 | [5] -0.073 | [6] -0.1 | [7] -0.187 | [8] 0.122 | IRAK-1-4 Inhibitor I 0.067

PKM (UniProt P14618)
inactive: erlotinib -0.012 | [1] -0.058 | [2] 0.034 | [3] -0.002 | [4] 0.004 | [5] 0.028 | [6] -0.022 | [7] -0.015 | [8] 0 | IRAK-1-4 Inhibitor I -0.003

PIP5K1C isoform 3 (UniProt O60331)
inactive: erlotinib -0.096 | [2] 0.003 | [4] -0.135 | [5] 0.005 | [7] -0.008 | [8] -0.034 | IRAK-1-4 Inhibitor I -0.056

PHLDB3 (UniProt Q6NSJ2)
inactive: erlotinib 0.126 | [2] 0.013

PGM1 isoform 2 (UniProt P36871)
inactive: erlotinib 0.202 | [2] -0.277 | [7] 0.124 | [8] 0.113

PHACTR2 isoform 4 (UniProt O75167)
inactive: erlotinib 0.024 | [2] 0.066 | [4] -0.038 | [5] -0.054 | [7] 0.03 | [8] -0.345 | IRAK-1-4 Inhibitor I -0.043

PHC3 isoform 7 (UniProt Q8NDX5)
inactive: erlotinib -0.016 | [1] 0.03 | [2] -0.187 | [3] 0.053 | [6] -0.019 | [7] -0.072 | [8] 0.042

PIAS4 (UniProt Q8N2W9)
inactive: erlotinib -0.215 | [1] -0.036 | [2] 0.044 | [3] -0.097 | [5] 0.036 | [6] -0.041 | [7] 0.005 | [8] -0.031 | IRAK-1-4 Inhibitor I -0.004

PIK3CG (UniProt P48736)
inactive: erlotinib 0.045 | [1] 0 | [2] -0.011 | [3] 0.045 | [5] -0.047 | [6] -0.005 | [7] 0 | [8] 0.003 | IRAK-1-4 Inhibitor I -0.011

PLEKHA2 (UniProt Q9HB19)
inactive: erlotinib -0.028 | [2] 0.009 | [4] -0.105 | [5] 0.119 | IRAK-1-4 Inhibitor I -0.12

PLCB4 isoform 4 (UniProt Q15147)
inactive: erlotinib 0.208 | [2] -0.531 | [5] 0.11 | [7] 0.315 | [8] 0.067 | IRAK-1-4 Inhibitor I -0.23

PIGN (UniProt O95427)
inactive: erlotinib 0.028 | [1] -0.045 | [2] 0.039 | [3] 0.006 | [5] -0.029 | [6] -0.081 | [7] 0.086 | [8] -0.064 | IRAK-1-4 Inhibitor I 0.035

PIP5K1A (UniProt Q99755)
inactive: erlotinib 0.036 | [2] -0.14 | [4] 0.022 | [5] -0.062 | IRAK-1-4 Inhibitor I -0.195

PIAS1 isoform 2 (UniProt O75925)
inactive: erlotinib -0.032 | [2] -0.127

PHF19 (UniProt Q5T6S3)
inactive: erlotinib -0.089 | [2] 0.095 | [5] -0.013 | IRAK-1-4 Inhibitor I -0.054

PLEK (UniProt P08567)
inactive: erlotinib 0.096 | [2] -0.133 | [5] -0.008 | [7] 0.025 | [8] -0.024 | IRAK-1-4 Inhibitor I -0.049

PIK3CD (UniProt O00329)
inactive: erlotinib -0.014 | [1] -0.162 | [2] -0.095 | [3] 0.034 | [4] 0.091 | [5] -0.031 | [6] 0.098 | IRAK-1-4 Inhibitor I 0.109

PICALM (UniProt H0YCY1)
inactive: erlotinib -0.09 | [2] 0.108

PHLDA2 (UniProt Q53GA4)
inactive: erlotinib 0.019 | [1] -0.697 | [2] -0.123 | [3] 0.04 | [5] -0.073 | [6] -0.239 | IRAK-1-4 Inhibitor I 0.041

PLA2G12A (UniProt Q9BZM1)
inactive: erlotinib -0.014 | [1] -0.003 | [2] -0.062 | [3] 0.008 | [4] -0.128 | [5] 0.174 | [6] -0.022 | IRAK-1-4 Inhibitor I -0.031
